Literature values, collected in patent US6147095A (priority 1999, dated 2000).
At least one read-out could not be matched to a standard name with certainty.

Conditions: Table 1; cited from earlier work

Row | SMILES | tubular secretion, in urine
1 | Cc1cn([C@H]2C=C[C@@H](CO)O2)c(=O)[nH]c1=O [d4T] | ~ 40%
2 | O=c1[nH]cnc2c1ncn2[C@H]1CC[C@@H](CO)O1 [ddI] | ~ 55%
